{"source": "patent US20180371460", "molecular_target": "Human serum albumin (HSA) in human plasma, denatured (Homo sapiens) (UniProt P02768)", "experiment": "pull-down", "conditions": "selective pull-down from plasma; Tween 80 or Empigen BB with DTT; blank beads control; protein in an extract; single-stranded DNA", "note": "For at least one entry, the source does not settle the construct or the ends of the probe. Where cells or extracts were used, other partners may take part."}
{"sequence": "GCGCATACCAGCTTATTCAATTCGGATAGACAACATGGGGAAGAACAGTGTCTAGTCGTGGGTTGCTCTGTAAGATAGTAAGTGCAATCTCGGC [36]", "values": [{"measurement": "binding result", "value": "binds"}]}
